Measurements as given in patent US5763209.
Results from cells or extracts need not show a direct contact.

Target: Egr-1 Δ3-47 del3-47 (Mus musculus) (UniProt P08046)
Assay: EMSA
Details: HeLa extract, poly dI-dC, room temperature; residues 331-419 alone required; protein in a lysate after overexpression; label: 32P

“CGCCCTCGCCCCCGCGCCGGG (double strand) [EBS-1]”: binds.
